Test results reported in publication PMC7673040.

How the values were obtained:
SRα wildtype (human) = molecular target: T1, SRα wildtype (human) (UniProt P08240); experiment: co-purification; SRα (wildtype or R458A) and SRβΔTM co-expressed in E. coli BL21(DE3); Ni-Sepharose, MonoS, Superdex 200
T1 sequence: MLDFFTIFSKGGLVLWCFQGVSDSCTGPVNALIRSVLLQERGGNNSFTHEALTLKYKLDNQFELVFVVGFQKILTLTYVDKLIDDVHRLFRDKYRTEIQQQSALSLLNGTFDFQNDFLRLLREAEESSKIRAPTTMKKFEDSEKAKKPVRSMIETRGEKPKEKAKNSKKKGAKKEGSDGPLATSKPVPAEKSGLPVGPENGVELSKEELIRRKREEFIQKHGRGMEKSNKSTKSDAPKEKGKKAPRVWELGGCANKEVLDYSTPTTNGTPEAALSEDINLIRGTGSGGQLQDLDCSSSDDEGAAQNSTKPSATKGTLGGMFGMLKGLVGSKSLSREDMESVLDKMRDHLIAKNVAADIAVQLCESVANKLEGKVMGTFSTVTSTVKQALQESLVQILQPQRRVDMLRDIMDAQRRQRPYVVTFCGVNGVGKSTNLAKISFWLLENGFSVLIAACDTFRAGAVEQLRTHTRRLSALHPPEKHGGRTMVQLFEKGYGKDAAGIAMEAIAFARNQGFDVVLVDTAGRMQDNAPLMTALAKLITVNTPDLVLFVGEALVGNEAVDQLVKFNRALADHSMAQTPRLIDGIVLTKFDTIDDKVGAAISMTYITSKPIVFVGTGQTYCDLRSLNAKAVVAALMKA

[1] = molecular target: T2, SRα GTP hydrolysis mutant (R458A) (human) (UniProt P08240); experiment: as above
T2 sequence: T1 sequence with R458A

SRβΔTM (human) (domain or fragment)
binding (SRα wildtype (human)): binds | binding [1]: binds

Changes are numbered by the printed parent chain. These are yes or no findings as the source states them, for the method shown. In cells and extracts the contact can be indirect. Binding can be weak; no strength is given.
